These are yes or no findings as the source states them, for the method shown. In cells and extracts the contact can be indirect. Some binding calls cover weakened binding; strength is not graded here.
Assays:
[1] = target: T1, METTL14 (endogenous, HeLa) (human (endogenous in HeLa)) (UniProt Q9HCE5); assay: co-IP; endogenous proteins in HeLa lysate; anti-METTL14 or anti-PRMT1 antibody with Dynabeads Protein G, 3 h at 4 C; IP buffer 25 mM Tris, 150 mM NaCl, 1 mM EDTA, 5% glycerol, Triton X-100; western blot
T1 sequence: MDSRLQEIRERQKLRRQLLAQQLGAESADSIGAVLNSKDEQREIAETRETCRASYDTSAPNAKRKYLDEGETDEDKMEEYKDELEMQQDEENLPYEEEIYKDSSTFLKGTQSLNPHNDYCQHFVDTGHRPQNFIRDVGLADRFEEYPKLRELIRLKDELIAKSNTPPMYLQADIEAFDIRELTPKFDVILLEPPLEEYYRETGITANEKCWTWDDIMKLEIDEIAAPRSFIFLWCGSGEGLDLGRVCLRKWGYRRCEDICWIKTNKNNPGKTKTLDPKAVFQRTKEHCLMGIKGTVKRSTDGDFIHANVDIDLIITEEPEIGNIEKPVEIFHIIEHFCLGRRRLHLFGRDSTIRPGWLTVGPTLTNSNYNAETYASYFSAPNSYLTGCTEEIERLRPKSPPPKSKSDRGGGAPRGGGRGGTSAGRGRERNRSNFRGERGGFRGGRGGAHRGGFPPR

Protein sequences, listed by entry. Tags and fused reporters are not part of them.
UniProt Q99873: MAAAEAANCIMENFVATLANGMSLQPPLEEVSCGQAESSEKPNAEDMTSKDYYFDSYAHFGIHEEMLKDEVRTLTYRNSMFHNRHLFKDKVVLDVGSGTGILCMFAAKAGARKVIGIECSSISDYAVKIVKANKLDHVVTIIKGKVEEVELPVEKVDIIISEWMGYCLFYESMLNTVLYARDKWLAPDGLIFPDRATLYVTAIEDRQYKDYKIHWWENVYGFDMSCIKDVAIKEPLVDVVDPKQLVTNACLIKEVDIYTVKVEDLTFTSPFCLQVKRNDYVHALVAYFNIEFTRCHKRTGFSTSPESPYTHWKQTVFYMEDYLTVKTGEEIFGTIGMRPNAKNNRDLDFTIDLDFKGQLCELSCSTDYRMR

[2] = target: T2, ectopically expressed full-length METTL14 (UniProt Q9HCE5); assay: co-IP; full-length or truncated METTL14 transfected into HeLa cells with PRMT1; western blot
T2 sequence: T1 sequence

Substance	binding [1]	binding [2]
protein arginine N-methyltransferase 1 (PRMT1) (endogenous, HeLa) (from UniProt Q99873 1-371) (enzyme)	binds	
PRMT1 (transfected into HeLa cells with METTL14 constructs) (from UniProt Q99873 1-371) (enzyme)		binds
